Test results from publication doi:10.1101/521351 (bioRxiv, 2019).
Results are given in words; binding and its absence hold for the method and conditions named. Some results given as binding are weak or reduced against the parent protein; the word gives no strength.

Sequences of proteins named here, by UniProt entry; tags and fusion partners are left off. Residues count along the entry.
UniProt P61823, residues 27-150: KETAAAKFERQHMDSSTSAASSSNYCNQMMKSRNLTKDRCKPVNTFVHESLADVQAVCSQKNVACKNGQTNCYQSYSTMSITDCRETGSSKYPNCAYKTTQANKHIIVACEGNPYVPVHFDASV
UniProt P10997, residues 34-70: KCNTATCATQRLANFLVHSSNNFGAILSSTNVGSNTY

How the values were obtained:
[1] = molecular target: T1, ICA512 RESP18HD (regulated endocrine-specific protein 18 homology domain of ICA512, residues 35-131) (human) (UniProt Q16849); test: co-sedimentation
T1 sequence: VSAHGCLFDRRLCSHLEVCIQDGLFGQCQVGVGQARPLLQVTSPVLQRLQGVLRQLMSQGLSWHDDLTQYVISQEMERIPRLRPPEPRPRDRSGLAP

[2] = molecular target: T1, ICA512 RESP18HD (regulated endocrine-specific protein 18 homology domain of ICA512, residues 35-131) (human); test: light scattering
[3] = molecular target: T1, ICA512 RESP18HD (regulated endocrine-specific protein 18 homology domain of ICA512, residues 35-131) (human); test: light scattering; remark: listed apart in the source
[4] = molecular target: T1, ICA512 RESP18HD (regulated endocrine-specific protein 18 homology domain of ICA512, residues 35-131) (human); test: light scattering; remark: listed apart in the source
[5] = molecular target: T1, ICA512 RESP18HD (regulated endocrine-specific protein 18 homology domain of ICA512, residues 35-131) (human); test: light scattering; remark: listed apart in the source

RNase A (from UniProt P61823 27-150) (enzyme)
binding [1]: no binding (tested: 8 uM)

Amylin (from UniProt P10997 34-70) (peptide)
binding [2]: no binding (tested: 8 uM amylin)

B1: ICA512 RESP18HD (regulated endocrine-specific protein 18 homology domain of ICA512, residues 35-131) (domain or fragment, human, UniProt Q16849 35-131, looked up)
chain: T1 sequence
binding [3]: binds weakly
binding [4]: no binding (condition: pH 4.5)
binding [5]: no binding (condition: pH 6.8)
